Measurements from publication doi:10.1101/2023.10.18.562906.
These are yes or no findings as the source states them, for the method shown. Binding seen in cells or lysates may run through a third protein. Some binding calls cover weakened binding; strength is not graded here. Each block holds one substance with its values, some of them ahead of it.

The chains behind the UniProt entries cited, without tags or fusion partners. Where a name states a change or a piece, a line headed by the entry shows the natural chain unless it says otherwise.
UniProt Q8IWT3: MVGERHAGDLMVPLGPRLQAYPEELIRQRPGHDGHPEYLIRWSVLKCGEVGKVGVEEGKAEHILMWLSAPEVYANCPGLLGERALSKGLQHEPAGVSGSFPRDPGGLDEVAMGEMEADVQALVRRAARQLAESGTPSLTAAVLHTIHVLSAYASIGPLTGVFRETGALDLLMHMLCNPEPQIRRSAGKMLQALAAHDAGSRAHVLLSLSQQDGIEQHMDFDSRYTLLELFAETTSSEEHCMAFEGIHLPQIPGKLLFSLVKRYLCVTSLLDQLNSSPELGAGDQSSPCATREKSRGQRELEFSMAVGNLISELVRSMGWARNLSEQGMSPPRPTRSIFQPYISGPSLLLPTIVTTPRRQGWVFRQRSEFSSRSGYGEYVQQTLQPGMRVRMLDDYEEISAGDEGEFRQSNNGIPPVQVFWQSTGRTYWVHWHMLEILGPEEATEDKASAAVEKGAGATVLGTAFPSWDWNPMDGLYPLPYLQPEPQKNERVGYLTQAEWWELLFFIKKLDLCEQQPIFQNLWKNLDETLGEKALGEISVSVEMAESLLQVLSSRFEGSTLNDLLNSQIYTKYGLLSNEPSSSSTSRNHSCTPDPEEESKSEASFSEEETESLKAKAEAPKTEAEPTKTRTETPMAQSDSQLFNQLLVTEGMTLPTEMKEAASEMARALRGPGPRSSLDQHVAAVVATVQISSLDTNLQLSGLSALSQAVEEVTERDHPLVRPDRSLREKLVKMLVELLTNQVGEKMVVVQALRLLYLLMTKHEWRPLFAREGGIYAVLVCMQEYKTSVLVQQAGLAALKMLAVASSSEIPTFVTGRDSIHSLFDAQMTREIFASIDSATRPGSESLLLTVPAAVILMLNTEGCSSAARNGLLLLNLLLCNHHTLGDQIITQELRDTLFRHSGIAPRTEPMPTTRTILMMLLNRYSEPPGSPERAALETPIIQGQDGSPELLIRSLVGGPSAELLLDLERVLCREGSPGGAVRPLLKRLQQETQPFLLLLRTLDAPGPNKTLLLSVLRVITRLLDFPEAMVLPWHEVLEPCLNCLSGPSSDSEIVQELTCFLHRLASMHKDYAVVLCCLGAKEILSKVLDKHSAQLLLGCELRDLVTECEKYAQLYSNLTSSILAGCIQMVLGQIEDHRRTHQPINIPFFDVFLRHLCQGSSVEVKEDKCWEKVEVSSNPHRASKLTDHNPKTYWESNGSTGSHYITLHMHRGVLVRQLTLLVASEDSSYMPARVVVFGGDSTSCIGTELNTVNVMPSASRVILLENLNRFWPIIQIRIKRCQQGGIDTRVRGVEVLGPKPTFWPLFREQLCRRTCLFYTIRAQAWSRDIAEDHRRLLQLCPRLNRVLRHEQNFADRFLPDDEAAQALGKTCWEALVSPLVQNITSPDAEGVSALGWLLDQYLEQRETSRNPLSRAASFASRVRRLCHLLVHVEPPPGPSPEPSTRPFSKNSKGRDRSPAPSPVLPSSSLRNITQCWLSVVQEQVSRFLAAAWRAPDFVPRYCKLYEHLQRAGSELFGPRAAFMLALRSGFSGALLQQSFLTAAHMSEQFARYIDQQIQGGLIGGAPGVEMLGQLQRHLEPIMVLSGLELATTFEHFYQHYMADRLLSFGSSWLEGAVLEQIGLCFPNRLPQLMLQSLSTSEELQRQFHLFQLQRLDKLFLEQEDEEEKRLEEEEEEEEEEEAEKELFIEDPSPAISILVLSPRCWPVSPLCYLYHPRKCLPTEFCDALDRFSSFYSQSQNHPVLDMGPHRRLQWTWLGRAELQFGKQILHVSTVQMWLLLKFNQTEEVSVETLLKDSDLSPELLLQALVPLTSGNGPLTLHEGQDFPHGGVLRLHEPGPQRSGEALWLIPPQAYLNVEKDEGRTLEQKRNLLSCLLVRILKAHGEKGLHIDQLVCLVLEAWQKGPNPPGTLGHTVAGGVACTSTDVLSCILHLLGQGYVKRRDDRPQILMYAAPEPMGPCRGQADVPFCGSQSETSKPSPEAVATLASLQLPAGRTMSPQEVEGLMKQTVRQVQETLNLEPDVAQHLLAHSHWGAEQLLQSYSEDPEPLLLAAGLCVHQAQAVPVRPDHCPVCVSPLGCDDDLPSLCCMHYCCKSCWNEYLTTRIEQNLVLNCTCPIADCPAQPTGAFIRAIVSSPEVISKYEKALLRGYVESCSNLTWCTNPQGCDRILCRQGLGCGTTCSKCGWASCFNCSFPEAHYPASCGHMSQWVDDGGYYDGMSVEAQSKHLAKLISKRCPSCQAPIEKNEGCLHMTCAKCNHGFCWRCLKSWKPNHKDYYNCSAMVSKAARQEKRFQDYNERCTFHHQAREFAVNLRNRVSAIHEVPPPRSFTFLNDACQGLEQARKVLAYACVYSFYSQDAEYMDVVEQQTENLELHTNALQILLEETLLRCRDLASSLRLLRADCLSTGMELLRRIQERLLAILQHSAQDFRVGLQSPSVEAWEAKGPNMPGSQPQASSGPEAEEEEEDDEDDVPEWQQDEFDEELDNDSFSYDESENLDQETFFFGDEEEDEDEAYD
UniProt P07947: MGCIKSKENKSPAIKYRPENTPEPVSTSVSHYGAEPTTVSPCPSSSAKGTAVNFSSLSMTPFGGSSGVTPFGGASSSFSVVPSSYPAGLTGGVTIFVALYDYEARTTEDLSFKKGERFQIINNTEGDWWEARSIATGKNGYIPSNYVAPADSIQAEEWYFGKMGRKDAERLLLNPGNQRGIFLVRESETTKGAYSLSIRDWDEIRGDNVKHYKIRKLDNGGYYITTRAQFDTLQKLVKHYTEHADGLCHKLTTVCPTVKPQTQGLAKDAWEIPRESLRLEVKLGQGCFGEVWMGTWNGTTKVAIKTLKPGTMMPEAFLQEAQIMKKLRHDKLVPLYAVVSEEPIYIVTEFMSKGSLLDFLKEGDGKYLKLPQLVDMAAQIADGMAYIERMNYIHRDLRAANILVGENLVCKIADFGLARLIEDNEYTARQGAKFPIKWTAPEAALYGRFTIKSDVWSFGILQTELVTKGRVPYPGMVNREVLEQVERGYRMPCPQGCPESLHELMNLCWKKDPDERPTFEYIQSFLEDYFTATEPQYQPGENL

Assays:
HA-Cul9 = HA-Cul9 (UniProt Q8IWT3); assay: co-IP
[1] = molecular target: endogenous Cul9 (gastric cancer cells) (human (endogenous in SGC7901)) (UniProt Q8IWT3); assay: co-IP
[2] = molecular target: endogenous Cul9 (gastric cancer cells) (human (endogenous in SGC7901)) (UniProt Q8IWT3); assay: proximity ligation
[3] = molecular target: Cul9 (HEK293T, immunoprecipitated with anti-Cul9) (UniProt Q8IWT3); assay: co-IP
Cul9-Y1505F = Cul9-Y1505F (UniProt Q8IWT3); assay: co-IP
Cul9-K1657R mutant = Cul9-K1657R mutant (UniProt Q8IWT3); assay: co-IP

binding (HA-Cul9): binds
Substance: Flag-Yes1 (from UniProt P07947 1-543) (enzyme)

binding [1]: binds
binding [2]: binds
Substance: endogenous Yes1 (gastric cancer cells) (from UniProt P07947 1-543) (enzyme)

binding [3]: binds
binding (Cul9-Y1505F): no binding
Substance: p62 (HEK293T) (from UniProt Q13501 1-440)

binding [1]: binds
binding (Cul9-K1657R mutant): no binding
Substance: p62 (gastric cancer cells) (from UniProt Q13501 1-440)
